The text below walks through data of PubChem BioAssay AID2685 (National Center for Advancing Translational Sciences (NCATS), 2010).

The assay can be described thus: qHTS Assay for Lipid Storage Modulators in Drosophila S3 Cells.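 On cell number change: cells counted by Cell Tracker Red CMTPX staining in the red channel.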 The conditions noted are these: BODIPY lipid droplet fluorescence, 18-24 h; for cell number change: measured here: cell count max response, cells fed with added oleic acid. The procedure, abridged: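 Drosophila S3 cells got compounds at several concentrations plus oleic acid (400 uM solution). Laser-scanning cytometry with 488 nm excitation read lipid droplets at 500-530 nm and cells at 575-640 nm. Percent activity was relative to 20 uM Triacsin C.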

Where [1] appears, read: measured here: lipid fluorescence (Fed channel) AC50, cells fed with added oleic acid.
Setting [2] is: measured here: cell number channel AC50, cells fed with added oleic acid.

Molecules are shown by their SMILES. This is one part of the list. The main result of the screen is listed elsewhere. These columns were measured beside it and carry no call. Compounds called inactive in the main read-out are mostly missing here. Words in brackets tell the shape of the fitted curve; partial curves, single points and poor fits give uncertain potencies.

Turning to `CCCN1CCN(CCCNC(=O)c2ccc3c(Cl)c4c(nc3c2)CCCC4)CC1`, the AC50 under setting [1] is 6.51 µM [rising, single point]. As for `COc1ccc(N(CC(=O)Nc2ccc(OC)c(Cl)c2)S(=O)(=O)c2c(C)noc2C)cc1`, the cell number change was -22.7%. The AC50 under setting [1] was 16.4 µM [falling, single point].

For the molecule `O=C(CNC(=O)c1ccc(N2C(=O)c3ccccc3C2=O)cc1)OCC(=O)c1ccccc1`, the cell number change amounted to 11.2%. Further, under setting [1], the half-maximal activity concentration (AC50) was 0.651 µM [falling, partial curve, poor fit]. Consider `COc1ccc(-c2csc(Nc3ccccc3)n2)cc1`, for which the cell number change worked out at 24.6%. In addition, under setting [1], the concentration at half-maximal activity (AC50) is 0.164 µM [falling, full curve, poor fit].

`CC1Cc2ccccc2N1C(=O)COC(=O)c1cc(Br)ccc1O` (configuration not stated): the cell number change worked out at 23.3%. With `O=C(Nc1ccc2cn[nH]c2c1)c1c(Cl)cccc1Cl`, the cell number change was -35.2%. Besides, the AC50 under setting [2] is 20.6 µM [falling, single point]. For the same molecule, the AC50 under setting [1] was 18.4 µM [falling, single point]. With `CC(C)CC(=O)NC(=S)Nc1ccc(F)cc1F`, the cell number change turned out to be 18.2%. As for `O=C(NCc1ccccn1)c1nnc(Cc2ccc(Cl)cc2)o1`, the cell number change came out at 16.3%. The AC50 under setting [1] is 6.51 µM [rising, single point]. With `O=S(=O)(c1ccccc1)c1nc(-c2ccccc2)oc1NCCCN1CCOCC1`, the cell number change is -19.8%. In addition, the AC50 under setting [2] is 0.517 µM [rising, full curve, poor fit]. Regarding `CC(=O)c1cccc(NC(=O)c2ccc(N(Cc3ccccc3C)S(C)(=O)=O)cc2)c1`, the cell number change was -35.1%. Besides, the AC50 under setting [2] is 20.6 µM [falling, partial curve, poor fit]. For `COc1ccc(OC)c(S(=O)(=O)Nc2ccccc2C(=O)O)c1`, the AC50 under setting [2] was 6.51 µM [falling, single point]. As for `Cc1nc2cc(Cl)ccc2n1-c1ccccc1`, the cell number change was -14.9%. Under setting [1], the AC50 was 18.4 µM [rising, single point]. As for `Cc1ccccc1CNC(=O)C(=O)NCC1OCCCN1S(=O)(=O)c1ccc(F)cc1C` (configuration not stated), the cell number change amounted to 7.8%. The AC50 under setting [1] was 18.4 µM [rising, single point]. For the molecule `CCOc1ccc(C(=O)Nc2cc(-c3nc4ccccc4[nH]3)ccc2Cl)cc1[N+](=O)[O-]`, the cell number change turned out to be 9.5%. Also, under setting [1], the half-maximal activity concentration (AC50) is 0.13 µM [falling, single point]. Regarding `C/C(=C1/C(=O)N(c2ccc([N+](=O)[O-])cc2)N=C1c1ccccc1)N(C)C`, the cell number change was -15.3%. Besides, the AC50 under setting [1] is 7.31 µM [falling, single point]. As for `Cc1nn(Cc2ccc(Br)cc2)c(C)c1NC(=O)c1nn(C)cc1Cl`, the cell number change was -12.2%. Regarding `Cc1cc(=O)[nH]c(=O)n1Cc1ccccc1`, the cell number change was 36.3%. Besides, the AC50 under setting [2] is 29.1 µM [rising, single point]. In addition, the AC50 under setting [1] is 18.4 µM [rising, single point]. Take `CCOc1ccc(Nc2nc(Cc3nnc(SCC(=O)NC4CCCC4)n3C)cs2)cc1`: under setting [1], the half-maximal activity concentration (AC50) is 20.6 µM [rising, single point]. For `Oc1c(C(Nc2ccccn2)c2ccccn2)ccc2cccnc12` (configuration not stated), the cell number change was -11.1%. Moreover, the AC50 under setting [1] was 0.82 µM [rising, single point]. As to `Cc1cc(C)nc(NC(=O)CSc2nnnn2-c2ccccc2)n1`, the cell number change was determined as 23.5%. Moreover, under setting [1], the AC50 is 0.731 µM [rising, full curve, poor fit]. Turning to `CCn1cc(/C=N\NC(=O)c2ccc3c(c2)c(C)c(C)n3Cc2ccccc2)c(C)n1`, the AC50 is, setting by setting: under setting [2], 0.259 µM [rising, full curve]; under setting [1], 0.411 µM [rising, full curve].

With `Cc1ccc(-c2nc(CS(=O)(=O)CC(=O)NCCN3CCOCC3)c(C)o2)cc1`, the cell number change was 0.806%. As to `CCN(c1ccccc1)S(=O)(=O)c1ccc(Cl)c(NC(=O)CN2CCCCCC2)c1`, the cell number change is -16.4%. As to `C/C(=N/NS(=O)(=O)c1ccc(C)cc1)c1ccc(NC(=O)C(F)(F)F)cc1`, the cell number change was -6.23%. Further, the AC50 under setting [2] was 6.51 µM [falling, single point]. Take `CCCNC(=S)N(Cc1ccccc1)Cc1nc2ccccc2c(=O)[nH]1`: the cell number change turned out to be 36.8%. Further, under setting [2], the concentration at half-maximal activity (AC50) was 14.6 µM [rising, partial curve]. For the molecule `CCOc1ccccc1NS(=O)(=O)c1cn(C)c(=O)n(C)c1=O`, the cell number change is -0.966%. Under setting [1], the AC50 was 18.4 µM [rising, single point]. On to `Clc1ccc(-c2n[nH]c3c2CCC3)c(Cl)c1`, for which the cell number change is -15.7%. Under setting [1], the AC50 is 58 µM [falling, partial curve, poor fit]. Take `COC(=O)c1ccc(C(=O)OC)c(NC(=S)N2CCC(C)CC2)c1`: the cell number change turned out to be 15%. For the same molecule, under setting [1], the half-maximal activity concentration (AC50) is 32.6 µM [rising, single point]. For the molecule `O=C1CSC(c2ccc([N+](=O)[O-])cc2)N1Cc1ccccc1` (configuration not stated), the cell number change is -12.2%. Besides, the AC50 under setting [1] is 1.16 µM [falling, full curve, poor fit]. For the molecule `COc1ccc(NC(=O)CN(C)C(=O)c2c(-c3c(F)cccc3Cl)noc2C)cc1`, the cell number change was -37.3%. Under setting [2], the concentration at half-maximal activity (AC50) was 20.6 µM [falling, single point]. Under setting [1], the AC50 was 23.1 µM [falling, single point].

Regarding `O=C(O)c1cccc(NC(=O)c2cccc(S(=O)(=O)N3CCc4ccccc4C3)c2)c1`, the concentration at half-maximal activity (AC50) under setting [1] was 13 µM [rising, partial curve, poor fit]. `Cc1c(O)ccc(C(=O)CN2CCN(c3ccc(F)cc3)CC2)c1O`: the cell number change amounted to 8.36%. Further, the AC50 under setting [1] was 29.1 µM [rising, single point]. As to `COC(=O)c1cc(NC(=O)CN2CCC(C(N)=O)(N3CCCCC3)CC2)cc(C(=O)OC)c1`, the cell number change turned out to be 73.7%. Besides, the AC50 under setting [2] was 16.4 µM [rising, partial curve]. For the same molecule, under setting [1], the AC50 is 16.4 µM [rising, partial curve, poor fit]. On to `COc1ccc2c(C(=O)c3ccc(C)cc3)n(CCC(N)=O)[n+]([O-])c2c1`, for which the cell number change was determined as 7.19%. Under setting [1], the AC50 is 0.00461 µM [falling, full curve, poor fit]. As to `Clc1cccc(/C(Cc2nc3ccccc3[nH]2)=N\Nc2ccccc2)c1`, the cell number change is -7.03%. Also, under setting [1], the AC50 was 29.1 µM [falling, single point]. For the molecule `O=C(O)C1CCCCC1C(=O)N1CCN(S(=O)(=O)c2ccc(F)cc2)CC1` (configuration not stated), the cell number change is -19.1%. Take `COc1ccc(CNC(=O)Cn2ccc(NC(=O)OCc3ccccc3)nc2=O)cc1`: the cell number change is -3.73%. In addition, the half-maximal activity concentration (AC50) under setting [1] was 10.3 µM [rising, single point].

In the case of `CCc1cc2c(=O)c(-c3cscn3)coc2cc1O`, the cell number change was -16.3%. Besides, under setting [1], the concentration at half-maximal activity (AC50) was 16.4 µM [rising, single point]. As to `CN(CCc1ccccn1)C(=O)Nc1ccc(Cl)cc1`, the cell number change is 22.3%. For the same molecule, under setting [2], the AC50 is 1.84 µM [rising, partial curve, poor fit]. In addition, the AC50 under setting [1] was 5.8 µM [rising, partial curve]. Take `CCNc1nc(NC(C)C)nc(SCCOc2ccc(C)cc2)n1`: the cell number change came to 3.35%. Turning to `CCOC(=O)N1CCN(CCC(=O)Nc2cc(C)ccc2C)CC1`, the cell number change was -1.65%. With `CCN(CCn1cccn1)Cc1nc(-c2ccc(C(=O)OC)cc2)no1`, the cell number change came to 1.14%. Under setting [1], the concentration at half-maximal activity (AC50) is 0.411 µM [falling, full curve, poor fit].

Take `O=C(NCC(=O)N(c1ccccc1)C(C(=O)NC1CCCCC1)c1cccnc1)c1ccco1` (configuration not stated): the cell number change was 22.1%. Consider `O=C(NC(=S)Nc1ccc(N2CCOCC2)c(Cl)c1)c1cncc(Br)c1`, for which the cell number change is -7.19%. Also, the AC50 under setting [1] was 29.1 µM [falling, single point].

In the case of `C=CCn1c(SCC(=O)N2c3ccccc3Sc3ccccc32)nnc1-c1ccco1`, the cell number change is -6.45%. With `CCC(C(=O)OCC(=O)Nc1cc(Cl)cc(Cl)c1)c1ccccc1` (configuration not stated), the cell number change was -43.1%. Besides, the AC50 under setting [2] was 20.6 µM [falling, partial curve]. Besides, the AC50 under setting [1] is 0.651 µM [falling, partial curve, poor fit]. Consider `Cc1ccc(Nc2nc(-c3sc(NC(=O)c4ccc([N+](=O)[O-])cc4)nc3C)cs2)cc1`, for which the cell number change was -37.5%. Further, the half-maximal activity concentration (AC50) under setting [2] is 9.2 µM [falling, partial curve]. In the case of `N=C(N)SCc1cccc2ccccc12`, the cell number change is -17.5%. Under setting [1], the AC50 is 23.1 µM [falling, single point]. Take `Cc1cccc(S(=O)(=O)c2c(N)n(-c3ccccc3)c3nc4ccccc4nc23)c1`: the cell number change was determined as 9.41%. For the same molecule, under setting [1], the AC50 was 23.1 µM [rising, single point]. Take `C=CCn1c(SCc2nc3c(c(=O)[nH]c(=O)n3CCCC)n2CCC)nnc1-c1ccccc1`: the cell number change is -14%.

For the molecule `FC(F)(F)c1cccc(Cc2noc(CN3CCC(c4ccncc4)CC3)n2)c1`, the cell number change was -38.4%. Also, under setting [2], the AC50 is 29.1 µM [falling, single point]. Besides, the AC50 under setting [1] is 29.1 µM [falling, single point].

As to `COCCNC(=S)N/N=C1\CC(C)CC(C)(C)C1` (configuration not stated), the cell number change worked out at 12.8%. With `Cc1ccc(C2CC2c2n[nH]c(=S)n2-c2ccc(Cl)cc2)cc1` (configuration not stated), the cell number change was -55.3%. For the same molecule, the AC50 under setting [2] was 20.6 µM [falling, single point]. The AC50 under setting [1] was 0.184 µM [falling, full curve, poor fit].

With `COc1cc(-c2nc(-c3ccccc3)c(-c3ccc(F)cc3)[nH]2)cc2c1OCO2`, the cell number change was found to be 2.38%. Moreover, the AC50 under setting [1] was 5.17 µM [rising, single point]. As to `O=S(=O)(NCc1ccccn1)c1ccc(Cl)c(C(F)(F)F)c1`, the AC50 under setting [1] is 0.116 µM [rising, single point]. Consider `COC(=O)[C@H](CCSC)NC(=O)NCCC1=CCCCC1`, for which the cell number change is -29.5%. For the same molecule, the AC50 under setting [2] was 0.00184 µM [falling, full curve, poor fit]. Besides, the AC50 under setting [1] was 23.1 µM [falling, partial curve, poor fit]. For `O=C(C1CCCCC1)N1CCN(c2ccccc2F)CC1`, the cell number change worked out at 10.5%. Turning to `Cc1ccc(COn2c(-c3ccc(Cl)cc3)nc3ccc([N+](=O)[O-])cc32)cc1`, the cell number change was -9.66%. The AC50 under setting [1] was 29.1 µM [falling, single point]. In the case of `CCOc1ccc(S(=O)(=O)N2CCCCC2)cc1NC(=O)CN1C(=O)NC(C)(C2CC2)C1=O` (configuration not stated), the cell number change is -20.4%. In addition, under setting [1], the AC50 was 6.51 µM [falling, single point]. With `COc1cccc(NC(=O)CSc2nc3scc(C)c3c(=O)[nH]2)c1`, the AC50 under setting [1] was 0.116 µM [falling, full curve]. On to `O=C(Oc1ccc2c(c1)OCO2)c1ccncc1`, for which the cell number change was -11.8%. Besides, the AC50 under setting [1] was 6.51 µM [falling, single point].
